From PubChem BioAssay AID493014 (National Center for Advancing Translational Sciences (NCATS), 2011)
About 170 (0.05%) of roughly 340,000 compounds were called active. The shares of active, inactive and inconclusive entries below differ from those in the screen. Calls come from the whole dose curve; as a rule, active = well fitted inhibition curve with a large enough effect in the signal ratio, with a control signal flat (not every such curve was filed as active); inconclusive = small, poorly fitted or top-dose-only effect, or effect the other way, or a change in a side signal; inactive = flat fitted curve, though single readings scatter; the % refers to the signal ratio. Potencies beside an inconclusive call are fits to weak or partial responses and may not hold up.
Potency is the fitted concentration of half-maximal effect.

Experiment: qHTS Assay to Find Inhibitors of Chronic Active B-Cell Receptor Signaling;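 for activity change, negative = inhibition: plate controls were basal doxycycline-induced cells for no effect and cells given 10 µM MG132 for full effect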
Details: ABC-DLBCL IkBa-CBG/CBR reporter, luminescence ratio (green luciferase fused to IkBa over red control in TMD8 lymphoma cells), 4 h; activity change, negative = inhibition: at 46.1 µM (top of the series) unless noted
Summary of the method: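 TMD8 human ABC-DLBCL cells with doxycycline-inducible IκBα–green luciferase fusion and unfused red luciferase, in 0.5% FBS medium; compounds up to 46 uM, 4 h at 37C. Green/red luminescence ratio, filter-overlap corrected, fitted to concentration-response curves.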
With O=C(CN1CCCC1)Nc1c(C(=O)C2CC2)oc2ccccc12 the activity change, negative = inhibition was inconclusive: -0.692%.
With CC(C)Oc1ccc(/C(O)=C2/C(=O)C(=O)N(CCN(C)C)C2c2cccs2)cc1 (stereo not given) the activity change, negative = inhibition was inconclusive: -2.79%.
For COc1ccc(CNC(=O)CCS(=O)(=O)Cc2ccc(C)cc2)c(OC)c1, the activity change, negative = inhibition was inconclusive: 1.91%.
With Cc1cc(S(=O)(=O)Nc2cc(C)c(O)c(C)c2)c(C)s1 the Potency was inconclusive: 23.1 µM [falling, single point].
With O=C1NCCN/C1=C\C(=O)c1ccc(Cl)cc1 the Potency was inconclusive: 22.4 µM [falling, partial curve].
With CC1(C)NC(=O)N(CC(O)COc2cccc(F)c2)C1=O (stereo not given) the activity change, negative = inhibition was inconclusive: 9.26%.
For COc1ccc(C(=O)NC(=S)Nc2cccc(Cl)c2N2CCOCC2)cc1[N+](=O)[O-], the “activity change, negative = inhibition” value was inactive: 5.3%.
With CCOC(=O)Cc1nnc(Nc2ccc(C)cc2C)c2ccccc12 the activity change, negative = inhibition was inconclusive: 6.48%.
With COc1ccccc1COCC(O)CNCC1(N2CCCCC2)CCCCC1 (stereo not given) the Potency was inconclusive: 25.9 µM [falling, partial curve, poor fit].
With CCc1cc[n+](-c2nc3ccccc3nc2[N-]S(=O)(=O)c2ccc(Br)s2)cc1 the activity change, negative = inhibition was inconclusive: -0.0927%.
In the case of O=C(CSCc1ccccc1Cl)N/N=C/c1ccco1, the activity change, negative = inhibition is reported as inconclusive: -3.9%.
For O=C(NNC(=O)c1ccccn1)c1cccc([N+](=O)[O-])c1, the Potency was inconclusive: 25.1 µM [falling, single point].
With CCOc1ccccc1N1Cc2ccccc2C1 the activity change, negative = inhibition was inconclusive: -9%.
With CCN(CC)c1ccc(/C=N/NS(=O)(=O)c2ccc(C)c([N+](=O)[O-])c2)cc1 the “activity change, negative = inhibition” value was inactive: 11.1%.
With C=CCc1cccc2ccc(=O)oc12 the activity change, negative = inhibition was inconclusive: 3.54%.
In the case of COc1cc(C(=O)NC2CCN(C)CC2)ccc1Nc1ncc2c(n1)N(C1CCC(O)CC1)CCC(=O)N2C (stereo not given), the activity change, negative = inhibition is reported as inconclusive: -5.26%.
For Cc1cccc(C)c1NC(=O)C[N+](C)(C)CC(O)COc1cccc2ccccc12 (stereo not given), the activity change, negative = inhibition was inconclusive: 5.21%.
With COc1ccc(CC(=O)NCC2(N3CCCCC3)CCCCC2)cc1 the “activity change, negative = inhibition” value was inactive: 4.62%.
With Cc1ccc(NS(=O)(=O)c2ccc(OCC(=O)NCc3cccnc3)cc2)cc1 the activity change, negative = inhibition was inconclusive: 2.78%.
With COc1cccc(N2CC(=O)N(NC(=O)c3sc4nc(C)cc(C)c4c3N)CC2=O)c1 the activity change, negative = inhibition was inconclusive: 15.9%.
For COc1ccc(NC(=O)C(=O)NNC(=O)c2ccc(Cl)cc2Cl)cc1, the activity change, negative = inhibition was inconclusive: -23.6%.
In the case of O=C(N/N=C/c1ccc(-c2cccc(C(F)(F)F)c2)o1)c1cccc(F)c1, the activity change, negative = inhibition is reported as inconclusive: -23.6%.
In the case of c1ccc(OCc2cc(-c3ccccc3)no2)cc1, the Potency is reported as inconclusive: 35.5 µM [falling, single point].
With COc1cc(COCC(O)CN2CCN(CCN3C(=O)c4cccc5cccc(c45)C3=O)CC2)cc(OC)c1OC (stereo not given) the activity change, negative = inhibition was inconclusive: -2.65%.
With CCOC(=O)c1ccc(NC(=O)CN(C)S(=O)(=O)c2ccc(Br)s2)cc1 the activity change, negative = inhibition was inconclusive: -18.8%.
With COc1ccc(CC(=O)NCCCc2ccccc2)cc1OC the activity change, negative = inhibition was inconclusive: 3.54%.
In the case of CCc1nn(CC(=O)NCCCc2ccccc2)c(=O)c2cc3cc(F)ccc3n12, the “activity change, negative = inhibition” value is reported as inactive: 1.4%.
In the case of O=C(N/N=C/c1ccc(N2CCOCC2)cc1)c1ccc(O)cc1, the Potency is reported as inconclusive: 6.31 µM [rising, single point].
In the case of O=C(Nc1nc2c(F)cccc2s1)c1ccc2c(c1)OCCO2, the activity change, negative = inhibition is reported as inconclusive: -5.2%.
With CCn1c(C)cc(/C=C2/SC(=O)N(CC(=O)N3CCCC3)C2=O)c1C the activity change, negative = inhibition was inconclusive: -2.85%.
In the case of COc1ccc(Br)cc1C(=O)Nc1cccc2ncccc12, the activity change, negative = inhibition is reported as inconclusive: 5.02%.
With Nc1nonc1-n1nnc(C(=O)N/N=C/c2ccc(Cl)cc2Cl)c1CN1CCCC1 the activity change, negative = inhibition was inconclusive: 9.13%.
In the case of CCOC(=O)c1cccnc1SCC(=O)Nc1ccc(C)cc1, the activity change, negative = inhibition is reported as inconclusive: 10.5%.
With COc1cccc(CNC(=O)c2cc(COc3c(F)cccc3F)on2)c1 the Potency was inconclusive: 11.2 µM [falling, single point].
With O=C(NCc1ccccc1)c1cc2ccc(O)cc2oc1=O the Potency was inconclusive: 22.4 µM [falling, partial curve].
In the case of CCOC(=O)C1CCN(C(=O)c2cccs2)CC1, the activity change, negative = inhibition is reported as inconclusive: 2.02%.
With O=C(/C=C\c1ccc2c(c1)OCO2)NC1(C(=O)Nc2ccc3c(c2)OCO3)CCCCC1 the activity change, negative = inhibition was inconclusive: -10.5%.
For Cc1ccc(NC(=O)c2ccc([N+](=O)[O-])cc2)cc1S(=O)(=O)N(C)C, the activity change, negative = inhibition was inconclusive: -0.179%.
In the case of Cc1ccc(OCC(=O)N2CCN(C(=O)CCC3CCCC3)CC2)cc1, the activity change, negative = inhibition is reported as inconclusive: 14.4%.
In the case of CC(=O)c1coc2ccc(OCCN3CCCCC3)cc12, the “activity change, negative = inhibition” value is reported as inactive: -0.325%.
